Paper PMC11538350, “Synthetic studies on the tetrasubstituted D-ring of cystobactamids lead to potent terephthalic acid antibiotics” (Communications Chemistry, 2024)

System: recombinant AlbD
Assay: AlbD enzyme assay (stability towards AlbD-mediated degradation)
Type: biochemical
Conditions: 120 µM cystobactamid, 5 µM recombinant AlbD, phosphate buffer pH 7.0, 28°C, incubation overnight (24 h), LC/MS/UV

SMILES	stability towards AlbD (degradation / cleavage)
CC(C)Oc1c(NC(=O)c2ccc(NC(=O)[C@H](CC(N)=O)NC(=O)c3ccc(NC(=O)c4ccc(C#N)cc4)cc3)cc2)ccc(C(=O)Nc2ccc(C(=O)O)cc2)c1O [compound 96, reference compound]	degraded
C#CC[C@H](NC(=O)c1ccc(NC(=O)c2ccc(C#N)cc2)cc1)C(=O)Nc1ccc(C(=O)Nc2ccc(C(=O)Nc3ccc(C(=O)O)cc3)c(O)c2CC(C)C)cc1 [Cmpd. 11]	reduced cleavage
C#CC[C@H](NC(=O)c1ccc(NC(=O)c2ccc(C#N)cc2)cc1)C(=O)Nc1ccc(NC(=O)c2ccc(C(=O)Nc3ccc(C(=O)O)cc3)c(O)c2OC(C)C)cc1 [Cmpd. 42]	fully stable
